Literature values as cited in patent EP1144423B1, “BIS-TERPYRIDINE-PLATINUM(II) COMPLEXES” (ISIS INNOVATION LIMITED, priority 1999, dated 2000).

Tested on: poly[d(A-T)2]
Conditions: cited from earlier work

SMILES: Cc1cc[n+]([Pt-2]23[n+]4ccccc4-c4cccc([n+]42)-c2cccc[n+]23)cc1.F[B-](F)(F)F.F[B-](F)(F)F [4-Picoline-2,2':6',2"-terpyridine-platinum(II) bis-tetrafluoroborate]
- site size (most stable binding mode): about 4 base pairs
- site size (second binding mode): approximately 2 base pairs

Where two headings read alike, the source gives them in different places.
